Assay results published in US20140141061A1.
Results are given in words; binding and its absence hold for the method and conditions named. In cells and extracts the contact can be indirect. Some results given as binding are weak or reduced against the parent protein; the word gives no strength.

Chains of the proteins cited; added tags and fusions are not shown. Residues count along the entry.
UniProt Q16665: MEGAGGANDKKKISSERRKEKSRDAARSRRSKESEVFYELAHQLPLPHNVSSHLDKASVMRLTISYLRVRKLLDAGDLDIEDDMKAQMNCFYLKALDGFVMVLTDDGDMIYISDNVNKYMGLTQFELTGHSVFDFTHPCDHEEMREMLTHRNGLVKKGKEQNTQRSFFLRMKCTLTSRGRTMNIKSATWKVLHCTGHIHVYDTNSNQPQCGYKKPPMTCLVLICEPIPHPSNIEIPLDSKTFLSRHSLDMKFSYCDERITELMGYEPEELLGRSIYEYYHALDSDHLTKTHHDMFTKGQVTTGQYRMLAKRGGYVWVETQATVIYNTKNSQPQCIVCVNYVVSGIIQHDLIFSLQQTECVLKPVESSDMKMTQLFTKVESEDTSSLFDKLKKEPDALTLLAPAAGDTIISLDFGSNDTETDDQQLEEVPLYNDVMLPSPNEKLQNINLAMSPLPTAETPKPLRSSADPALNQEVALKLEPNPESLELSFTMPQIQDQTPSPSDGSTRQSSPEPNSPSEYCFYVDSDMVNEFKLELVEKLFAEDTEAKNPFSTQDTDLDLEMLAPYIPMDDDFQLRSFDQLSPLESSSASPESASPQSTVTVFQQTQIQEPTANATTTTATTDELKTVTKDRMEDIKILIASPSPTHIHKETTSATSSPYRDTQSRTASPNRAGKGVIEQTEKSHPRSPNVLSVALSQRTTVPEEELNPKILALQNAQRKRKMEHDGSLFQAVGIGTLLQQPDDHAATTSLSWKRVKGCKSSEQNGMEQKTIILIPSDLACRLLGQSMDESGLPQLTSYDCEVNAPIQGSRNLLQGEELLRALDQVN
UniProt Q61221: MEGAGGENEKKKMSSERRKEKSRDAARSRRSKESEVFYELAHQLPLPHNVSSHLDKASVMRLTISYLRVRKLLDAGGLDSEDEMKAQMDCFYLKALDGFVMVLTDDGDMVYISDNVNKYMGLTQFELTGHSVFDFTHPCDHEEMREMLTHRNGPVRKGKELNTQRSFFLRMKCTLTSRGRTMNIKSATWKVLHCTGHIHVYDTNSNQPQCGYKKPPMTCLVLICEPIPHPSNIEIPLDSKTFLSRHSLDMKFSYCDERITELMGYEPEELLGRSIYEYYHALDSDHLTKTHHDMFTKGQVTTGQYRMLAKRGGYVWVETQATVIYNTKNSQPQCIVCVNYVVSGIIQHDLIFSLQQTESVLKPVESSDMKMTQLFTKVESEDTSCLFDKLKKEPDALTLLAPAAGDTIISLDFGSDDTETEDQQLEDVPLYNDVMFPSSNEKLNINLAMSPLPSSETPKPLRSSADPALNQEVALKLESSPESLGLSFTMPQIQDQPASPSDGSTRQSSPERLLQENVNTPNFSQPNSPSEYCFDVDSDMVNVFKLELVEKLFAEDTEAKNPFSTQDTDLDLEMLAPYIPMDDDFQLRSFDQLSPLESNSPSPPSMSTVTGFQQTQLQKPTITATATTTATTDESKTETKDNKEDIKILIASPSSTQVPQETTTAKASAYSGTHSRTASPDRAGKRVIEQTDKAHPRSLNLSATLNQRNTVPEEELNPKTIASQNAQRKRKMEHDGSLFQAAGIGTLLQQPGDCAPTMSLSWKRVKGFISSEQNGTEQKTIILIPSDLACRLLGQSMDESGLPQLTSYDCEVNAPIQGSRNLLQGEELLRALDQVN
UniProt P35222, residues 2-781: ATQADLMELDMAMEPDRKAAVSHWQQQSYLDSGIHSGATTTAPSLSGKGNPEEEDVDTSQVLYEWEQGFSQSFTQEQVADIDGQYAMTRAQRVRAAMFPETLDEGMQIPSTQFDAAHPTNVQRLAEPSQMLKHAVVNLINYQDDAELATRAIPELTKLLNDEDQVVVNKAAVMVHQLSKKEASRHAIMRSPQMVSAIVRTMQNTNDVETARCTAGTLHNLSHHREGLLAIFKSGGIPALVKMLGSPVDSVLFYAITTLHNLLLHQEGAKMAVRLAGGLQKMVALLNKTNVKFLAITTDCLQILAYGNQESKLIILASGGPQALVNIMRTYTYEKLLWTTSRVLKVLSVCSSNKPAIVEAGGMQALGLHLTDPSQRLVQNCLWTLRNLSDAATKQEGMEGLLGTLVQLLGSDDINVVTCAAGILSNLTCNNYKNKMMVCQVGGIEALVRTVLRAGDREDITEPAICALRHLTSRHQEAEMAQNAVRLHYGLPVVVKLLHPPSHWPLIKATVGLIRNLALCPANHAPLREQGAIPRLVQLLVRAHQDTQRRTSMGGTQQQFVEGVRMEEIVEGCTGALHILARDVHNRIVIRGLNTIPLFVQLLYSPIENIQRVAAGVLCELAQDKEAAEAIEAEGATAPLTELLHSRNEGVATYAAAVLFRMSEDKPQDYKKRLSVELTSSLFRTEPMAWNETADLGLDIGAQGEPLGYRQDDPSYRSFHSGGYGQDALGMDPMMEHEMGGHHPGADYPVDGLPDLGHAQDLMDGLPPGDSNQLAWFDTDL
UniProt Q02248, residues 2-781: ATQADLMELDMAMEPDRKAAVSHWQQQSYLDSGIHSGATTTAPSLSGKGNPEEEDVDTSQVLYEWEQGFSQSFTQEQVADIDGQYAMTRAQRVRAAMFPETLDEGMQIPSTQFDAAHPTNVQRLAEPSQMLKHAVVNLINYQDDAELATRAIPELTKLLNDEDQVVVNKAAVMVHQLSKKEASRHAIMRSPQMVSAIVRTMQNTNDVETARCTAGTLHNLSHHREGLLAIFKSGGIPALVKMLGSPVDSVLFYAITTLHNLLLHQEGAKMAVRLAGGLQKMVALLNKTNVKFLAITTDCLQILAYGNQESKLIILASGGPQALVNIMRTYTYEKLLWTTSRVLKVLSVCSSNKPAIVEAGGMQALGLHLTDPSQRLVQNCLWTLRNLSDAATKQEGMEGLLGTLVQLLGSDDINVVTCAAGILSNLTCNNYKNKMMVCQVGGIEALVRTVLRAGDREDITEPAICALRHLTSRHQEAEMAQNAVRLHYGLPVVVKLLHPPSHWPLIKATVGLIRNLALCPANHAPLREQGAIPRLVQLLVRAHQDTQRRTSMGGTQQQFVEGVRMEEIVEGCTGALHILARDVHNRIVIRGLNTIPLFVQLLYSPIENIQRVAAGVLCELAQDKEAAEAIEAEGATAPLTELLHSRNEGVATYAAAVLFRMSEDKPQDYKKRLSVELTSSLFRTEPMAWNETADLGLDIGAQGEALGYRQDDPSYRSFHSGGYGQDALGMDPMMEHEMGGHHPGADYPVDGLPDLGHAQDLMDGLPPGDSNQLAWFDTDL

Assays:
[1] = target: HIF-1α (endogenous, human hepatocellular carcinoma cell lines HepG2 and Huh7) (human) (UniProt Q16665); assay: co-immunoprecipitation, human hepatocellular carcinoma cell lines Huh7 and HepG2
[2] = target: HIF-1α (endogenous, human hepatocellular carcinoma cell lines HepG2 and Huh7) (human) (UniProt Q16665); assay: co-immunoprecipitation from HepG2 cell lysates with anti-β-catenin antibody, immunoblot for HIF-1α; hypoxia
[3] = target: HIF-1α (endogenous, mouse liver) (mouse) (UniProt Q61221); assay: co-immunoprecipitation from sham or ischemia-treated mouse liver lysates with anti-β-catenin antibody, immunoblot for HIF-1α

Substance: β-catenin (endogenous, human hepatocellular carcinoma cell lines HepG2 and Huh7) (from UniProt P35222 2-781)
- binding [1]: binds
- binding [2]: binds

Substance: β-catenin (endogenous, mouse liver / mouse AML12 hepatocytes) (from UniProt Q02248 2-781)
- binding [3]: binds
